# Assay results: PubChem BioAssay AID493014 (National Center for Advancing Translational Sciences (NCATS), 2011)
# Some of the results follow. Shown are side measurements of this screen, not its main read-out; they come without a call. Compounds called inactive in the main read-out are mostly missing here. The note in brackets gives the kind of curve behind each potency; many fits are weak.
# Experiment: qHTS Assay to Find Inhibitors of Chronic Active B-Cell Receptor Signaling
# Conditions: ABC-DLBCL IkBa-CBG/CBR reporter, luminescence ratio (green luciferase fused to IkBa over red control in TMD8 lymphoma cells), 4 h
# Summary of the method: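 Doxycycline induced both beetle luciferases in TMD8 lymphoma cells; IKK-driven degradation limits the IkappaBalpha-fused green signal, while red luminescence normalises for cell number and nonspecific effects. Compounds tested up to 46 uM, 4 hrs.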
# [1] = measured here: CBR red luminescence, cell number
# [2] = measured here: IkBa-CBG green luminescence
Structure (SMILES),AC50 [1],AC50 [2]
COc1ccc2cc(-c3nnc(Nc4ccccc4)s3)c(=O)oc2c1,"15.8 µM [falling, partial curve, poor fit]",
CC(C)C(=O)N1CCN(c2ccc(NC(=O)c3ccc([N+](=O)[O-])o3)cc2)CC1,"35.5 µM [falling, single point]",
c1ccc2c(CCNc3ncnc4nc[nH]c34)cccc2c1,"20.6 µM [falling, single point]",
COc1cccc(CNC(=O)c2ccc3c(=O)n4nc(Nc5ccccc5)sc4nc3c2)c1,"7.94 µM [falling, partial curve]",
Cc1cc(NC(=O)c2sc(Nc3ccc(F)c(Cl)c3)nc2N)no1,"25.1 µM [falling, partial curve, poor fit]",
Cc1cccnc1NC(=O)c1ccc(S(=O)(=O)N2CCC(C)CC2)cc1,"18.4 µM [falling, single point]",
CCCCCOC(=O)Nc1nnc(CCCCC)s1,"29.1 µM [rising, single point]",
COc1ccc(OCc2cc(C(=O)O)c(C)o2)cc1,"8.91 µM [falling, partial curve, poor fit]",
CCCCc1c(C)nc2ccc(Br)cc2c1SC(N)N,"25.1 µM [rising, single point]",
CCOC(=O)c1cnc(-c2ccccc2)nc1Oc1ccc(C)cc1,"5.62 µM [falling, single point]",
CCC(=O)Nc1nnc(-c2ccncc2)s1,"7.31 µM [falling, partial curve, poor fit]",
CCC(CO)Oc1cc(NCc2cc(C)cc(C)c2)c2ncn(C(C)C)c2c1 (stereo not drawn),"20.6 µM [falling, single point]",
O=C(Cn1c(=O)cnc2ccccc21)NNC(=O)c1ccc(Cl)cc1,"32.6 µM [rising, single point]",
O=C(Nc1ccccc1)c1ccc(OC(=O)c2cc3ccccc3o2)cc1,"2.91 µM [falling, partial curve]",
O=C(O)c1ccccc1C(=O)NC1CCCCNC1=O (stereo not drawn),"22.4 µM [falling, single point]",
COc1ccc(CCNC(=O)CN2CCN(c3cccc(C(F)(F)F)c3)CC2)cc1,"0.517 µM [falling, full curve]",
CCCCOc1ccc(NC2=NC3(CCCCC3)N=C(N)N2)cc1,"16.4 µM [rising, partial curve, poor fit]",
CC(C)CSc1nc2c(c(=O)[nH]c(=O)n2C)n1CC(O)COc1cccc2ccccc12 (stereo not drawn),"6.31 µM [rising, single point]",
Cc1ccc2oc(C(=O)Nc3cc(C)on3)c(C)c2c1,"29.1 µM [rising, single point]",
COc1cc(C(=O)N2CCN(c3ccccc3Cl)CC2)ccc1OCC(=O)N1CCOCC1,"2.31 µM [rising, full curve, poor fit]",
Cc1cccc(NC(=O)C2C3CCCCC32)c1 (stereo not drawn),"4.47 µM [rising, full curve, poor fit]",

Structure (SMILES),AC50 [1],AC50 [2]
Cc1ccc(N2CCN(/N=C/c3ccccc3)CC2)cc1,"22.4 µM [rising, single point]",
CC(C)c1ccc(/C=N/n2cnnc2)cc1,"7.08 µM [rising, full curve, poor fit]",
COc1cc(S(=O)(=O)N2CCCCCC2)ccc1-n1cnnn1,"29.1 µM [rising, single point]",
O=C(COc1ccc(S(=O)(=O)NCc2ccccc2)cc1Cl)NCC1CCCO1 (stereo not drawn),"23.1 µM [falling, single point]",
COc1cccc(Nc2sc(C(=O)c3ccc(Cl)cc3)c(N)c2C(=O)NCc2ccc(C)cc2)c1,"4.47 µM [rising, full curve, poor fit]","11.2 µM [falling, partial curve]"
O=C(Nc1ccccc1)c1ccc(Br)c(S(=O)(=O)Nc2cccnc2)c1,"5.17 µM [falling, partial curve, poor fit]",
CCCCOC(=O)NC1CCS(=O)(=O)C1 (stereo not drawn),"4.11 µM [falling, single point]",
O=C(OCC(=O)c1ccc[nH]1)c1ccc(F)c(S(=O)(=O)N2CCOCC2)c1,"20.6 µM [rising, single point]",
O=C(Cc1cccc2ccccc12)Nc1ccc2oc(-c3ccccc3)nc2c1,"6.51 µM [rising, single point]",
O=C(Nc1sccc1C(=O)NCc1ccco1)c1cccnc1,"32.6 µM [falling, partial curve, poor fit]",
CC(OC(=O)c1cccc(N2C(=O)c3ccccc3C2=O)c1)C(=O)Nc1ccc(N(C)C)cc1 (stereo not drawn),"2.31 µM [rising, partial curve]",
CCCCn1c(=O)[nH]c(=O)c2c1nc(-c1ccccc1OC(F)F)n2C,"35.5 µM [falling, single point]",
O=C(N/N=C/c1ccoc1)c1ccccc1F,"11.2 µM [falling, partial curve, poor fit]",
COc1cccc(OCc2nc3ccccc3[nH]2)c1,"25.1 µM [falling, single point]",
Cc1ccc(-c2cc(-c3ccco3)c(C#N)c(=O)[nH]2)cc1,,"3.98 µM [rising, full curve]"
COc1ccccc1N(Cc1cc(=O)[nH]c2ccccc12)C(=O)c1ccc([N+](=O)[O-])cc1,"35.5 µM [falling, partial curve, poor fit]",
Cc1nc(C)c(NC(=O)N2CCc3ccccc32)cc1NC(=O)N1CCc2ccccc21,"23.1 µM [rising, single point]",
O=C(CSc1ccccc1)Nc1ccc(C(=O)Nc2ccc(O)cc2)cc1,"35.5 µM [rising, single point]",
CCOC(=O)COc1ccc(C2NC(C(=O)O)CS2)cc1 (stereo not drawn),"0.58 µM [falling, partial curve, poor fit]",
CCOC(=O)c1ccc(N2C(=O)CC(N3CC(C)OC(C)C3)C2=O)cc1 (stereo not drawn),"6.51 µM [falling, single point]",
COCCOc1ccc(C(F)(F)F)cc1NC(=O)CN1C(=O)NC(C)(c2ccc3c(c2)OCO3)C1=O (stereo not drawn),"29.1 µM [falling, single point]",

# 3 records drawn at random from those above:
Structure (SMILES),AC50 [1],AC50 [2]
CCCCCOC(=O)Nc1nnc(CCCCC)s1,"29.1 µM [rising, single point]",
CC(C)c1ccc(/C=N/n2cnnc2)cc1,"7.08 µM [rising, full curve, poor fit]",
COc1ccc2cc(-c3nnc(Nc4ccccc4)s3)c(=O)oc2c1,"15.8 µM [falling, partial curve, poor fit]",
